# This is one part of the list.
# Protein sequences, listed by entry. Tags and fused reporters are not part of them. Lines headed by an entry give the natural chain unless they say otherwise; changes in a name come on top.
# UniProt O60906: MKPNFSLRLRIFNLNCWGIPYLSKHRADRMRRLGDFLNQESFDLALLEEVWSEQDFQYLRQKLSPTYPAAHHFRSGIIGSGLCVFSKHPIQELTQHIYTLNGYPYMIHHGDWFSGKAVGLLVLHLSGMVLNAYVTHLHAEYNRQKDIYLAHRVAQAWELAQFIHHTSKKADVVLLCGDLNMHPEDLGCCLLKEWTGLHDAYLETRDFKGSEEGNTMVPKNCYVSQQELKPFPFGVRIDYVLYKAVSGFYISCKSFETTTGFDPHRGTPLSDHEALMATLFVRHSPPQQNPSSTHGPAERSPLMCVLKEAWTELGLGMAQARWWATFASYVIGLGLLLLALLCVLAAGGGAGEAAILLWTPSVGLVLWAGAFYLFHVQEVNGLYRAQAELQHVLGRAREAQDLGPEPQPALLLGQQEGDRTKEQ
# UniProt Q92485: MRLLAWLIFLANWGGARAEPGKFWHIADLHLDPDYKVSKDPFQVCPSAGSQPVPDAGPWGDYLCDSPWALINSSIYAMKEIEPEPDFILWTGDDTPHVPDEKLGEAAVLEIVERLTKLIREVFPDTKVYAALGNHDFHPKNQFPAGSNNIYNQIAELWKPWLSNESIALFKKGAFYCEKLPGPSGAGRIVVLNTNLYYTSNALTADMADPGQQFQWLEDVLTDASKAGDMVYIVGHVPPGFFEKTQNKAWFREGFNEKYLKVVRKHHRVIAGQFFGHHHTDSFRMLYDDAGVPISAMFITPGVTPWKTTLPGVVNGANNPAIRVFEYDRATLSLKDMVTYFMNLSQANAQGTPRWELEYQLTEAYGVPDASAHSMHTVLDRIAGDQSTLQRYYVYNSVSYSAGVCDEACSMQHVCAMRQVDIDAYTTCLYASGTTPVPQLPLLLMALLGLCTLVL
# UniProt Q9NXE4: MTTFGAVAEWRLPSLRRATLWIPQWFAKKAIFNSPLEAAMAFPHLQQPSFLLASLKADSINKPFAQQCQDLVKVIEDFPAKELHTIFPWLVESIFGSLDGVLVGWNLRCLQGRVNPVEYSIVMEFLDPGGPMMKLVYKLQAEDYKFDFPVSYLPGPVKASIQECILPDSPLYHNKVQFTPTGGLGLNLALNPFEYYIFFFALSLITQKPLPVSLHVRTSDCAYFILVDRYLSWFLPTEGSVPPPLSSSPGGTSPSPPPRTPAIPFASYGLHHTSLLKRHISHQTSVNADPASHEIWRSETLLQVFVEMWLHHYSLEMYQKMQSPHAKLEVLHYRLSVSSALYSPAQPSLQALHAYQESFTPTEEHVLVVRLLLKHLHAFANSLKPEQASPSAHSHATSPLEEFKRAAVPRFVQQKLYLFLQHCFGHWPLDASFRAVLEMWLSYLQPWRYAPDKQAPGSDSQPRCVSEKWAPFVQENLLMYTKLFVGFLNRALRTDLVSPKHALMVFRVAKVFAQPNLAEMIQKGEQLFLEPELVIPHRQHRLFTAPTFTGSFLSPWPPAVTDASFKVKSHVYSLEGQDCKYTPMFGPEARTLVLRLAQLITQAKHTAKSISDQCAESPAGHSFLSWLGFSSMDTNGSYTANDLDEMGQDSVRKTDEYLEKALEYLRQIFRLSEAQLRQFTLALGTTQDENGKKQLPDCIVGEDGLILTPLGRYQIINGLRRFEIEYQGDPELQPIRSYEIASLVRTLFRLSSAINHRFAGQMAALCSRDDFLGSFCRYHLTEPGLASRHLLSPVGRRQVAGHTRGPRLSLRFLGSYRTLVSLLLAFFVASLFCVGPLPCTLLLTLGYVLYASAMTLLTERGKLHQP
# UniProt P02814: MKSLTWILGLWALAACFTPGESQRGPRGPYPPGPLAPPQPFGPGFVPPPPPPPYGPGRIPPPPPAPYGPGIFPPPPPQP
# UniProt Q92543: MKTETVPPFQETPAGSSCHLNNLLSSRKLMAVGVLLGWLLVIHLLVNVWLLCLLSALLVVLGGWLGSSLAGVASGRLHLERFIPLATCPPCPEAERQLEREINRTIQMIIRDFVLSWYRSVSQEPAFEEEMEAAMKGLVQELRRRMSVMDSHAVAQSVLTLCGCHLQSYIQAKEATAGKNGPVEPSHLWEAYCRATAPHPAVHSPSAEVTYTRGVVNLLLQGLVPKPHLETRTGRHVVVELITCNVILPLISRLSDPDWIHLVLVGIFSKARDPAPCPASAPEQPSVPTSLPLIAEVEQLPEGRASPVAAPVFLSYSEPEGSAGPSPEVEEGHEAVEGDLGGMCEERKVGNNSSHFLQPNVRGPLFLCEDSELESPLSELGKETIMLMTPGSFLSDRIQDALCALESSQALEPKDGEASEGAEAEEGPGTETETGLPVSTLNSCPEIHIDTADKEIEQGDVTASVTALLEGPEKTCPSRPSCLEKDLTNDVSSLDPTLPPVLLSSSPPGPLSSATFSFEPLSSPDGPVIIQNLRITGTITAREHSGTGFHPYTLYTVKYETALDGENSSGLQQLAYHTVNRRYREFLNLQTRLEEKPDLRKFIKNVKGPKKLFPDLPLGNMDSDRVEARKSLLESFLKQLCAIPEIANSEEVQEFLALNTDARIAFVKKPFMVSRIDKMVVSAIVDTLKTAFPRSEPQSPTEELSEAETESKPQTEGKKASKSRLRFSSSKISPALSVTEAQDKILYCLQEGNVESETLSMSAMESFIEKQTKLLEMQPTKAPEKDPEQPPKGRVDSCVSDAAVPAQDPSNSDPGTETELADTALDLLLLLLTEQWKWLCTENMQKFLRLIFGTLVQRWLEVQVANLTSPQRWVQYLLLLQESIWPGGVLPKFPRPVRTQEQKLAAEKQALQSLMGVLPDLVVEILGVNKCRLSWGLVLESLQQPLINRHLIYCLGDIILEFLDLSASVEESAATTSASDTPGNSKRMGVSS
# UniProt Q02447: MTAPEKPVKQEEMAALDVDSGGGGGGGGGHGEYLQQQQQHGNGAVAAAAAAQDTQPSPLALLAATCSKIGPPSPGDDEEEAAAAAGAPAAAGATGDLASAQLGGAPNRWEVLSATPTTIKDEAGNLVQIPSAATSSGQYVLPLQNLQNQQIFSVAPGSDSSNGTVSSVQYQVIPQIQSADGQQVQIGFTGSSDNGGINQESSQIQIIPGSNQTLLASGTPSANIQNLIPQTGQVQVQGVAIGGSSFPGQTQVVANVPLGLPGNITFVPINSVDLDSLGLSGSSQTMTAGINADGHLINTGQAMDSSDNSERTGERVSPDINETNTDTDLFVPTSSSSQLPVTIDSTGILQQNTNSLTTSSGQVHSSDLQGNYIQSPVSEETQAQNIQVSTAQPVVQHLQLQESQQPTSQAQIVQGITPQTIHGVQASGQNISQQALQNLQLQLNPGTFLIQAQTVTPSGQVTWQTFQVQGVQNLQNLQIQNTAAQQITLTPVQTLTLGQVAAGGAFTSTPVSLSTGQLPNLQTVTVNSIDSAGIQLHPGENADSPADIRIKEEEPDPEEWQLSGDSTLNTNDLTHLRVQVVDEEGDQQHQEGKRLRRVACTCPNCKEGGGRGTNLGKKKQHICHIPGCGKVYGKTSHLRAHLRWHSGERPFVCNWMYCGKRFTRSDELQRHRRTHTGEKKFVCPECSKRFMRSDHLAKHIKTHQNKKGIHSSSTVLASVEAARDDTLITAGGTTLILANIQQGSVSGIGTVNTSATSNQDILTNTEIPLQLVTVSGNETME
# UniProt O60271: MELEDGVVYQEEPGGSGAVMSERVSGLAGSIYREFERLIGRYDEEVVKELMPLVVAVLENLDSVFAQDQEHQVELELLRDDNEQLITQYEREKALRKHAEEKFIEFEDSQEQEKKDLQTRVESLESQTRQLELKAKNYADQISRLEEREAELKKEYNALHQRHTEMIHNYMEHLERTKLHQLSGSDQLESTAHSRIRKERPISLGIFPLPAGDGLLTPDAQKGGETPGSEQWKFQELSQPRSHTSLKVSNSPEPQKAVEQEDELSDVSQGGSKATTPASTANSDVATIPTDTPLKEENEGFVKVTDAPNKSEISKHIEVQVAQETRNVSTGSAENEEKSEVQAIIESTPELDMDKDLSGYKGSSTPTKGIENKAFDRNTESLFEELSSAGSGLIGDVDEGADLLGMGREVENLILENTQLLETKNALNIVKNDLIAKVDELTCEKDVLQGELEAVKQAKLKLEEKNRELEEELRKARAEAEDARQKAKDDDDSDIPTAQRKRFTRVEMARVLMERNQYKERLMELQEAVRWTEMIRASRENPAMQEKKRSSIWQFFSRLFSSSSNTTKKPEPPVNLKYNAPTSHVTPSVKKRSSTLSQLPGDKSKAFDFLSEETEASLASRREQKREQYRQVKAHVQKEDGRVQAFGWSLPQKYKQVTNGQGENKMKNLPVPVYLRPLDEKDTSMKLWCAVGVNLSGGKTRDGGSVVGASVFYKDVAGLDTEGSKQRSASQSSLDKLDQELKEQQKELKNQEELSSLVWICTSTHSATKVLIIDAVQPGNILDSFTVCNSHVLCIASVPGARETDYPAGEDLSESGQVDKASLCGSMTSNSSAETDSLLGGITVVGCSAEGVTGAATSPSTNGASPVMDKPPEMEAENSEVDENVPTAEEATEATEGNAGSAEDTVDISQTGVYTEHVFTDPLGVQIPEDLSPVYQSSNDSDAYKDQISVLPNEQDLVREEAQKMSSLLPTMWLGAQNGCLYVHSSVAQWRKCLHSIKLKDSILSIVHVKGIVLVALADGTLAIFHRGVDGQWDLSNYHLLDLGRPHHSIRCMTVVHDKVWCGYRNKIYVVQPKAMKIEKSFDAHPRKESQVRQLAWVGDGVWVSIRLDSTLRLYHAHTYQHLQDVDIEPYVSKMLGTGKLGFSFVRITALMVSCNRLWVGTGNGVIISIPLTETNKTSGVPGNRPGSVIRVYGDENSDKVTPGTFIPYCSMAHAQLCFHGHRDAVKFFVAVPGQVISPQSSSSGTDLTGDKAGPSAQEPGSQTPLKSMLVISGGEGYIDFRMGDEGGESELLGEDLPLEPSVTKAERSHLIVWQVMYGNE
# UniProt Q8TAQ2, whole entry, looked up: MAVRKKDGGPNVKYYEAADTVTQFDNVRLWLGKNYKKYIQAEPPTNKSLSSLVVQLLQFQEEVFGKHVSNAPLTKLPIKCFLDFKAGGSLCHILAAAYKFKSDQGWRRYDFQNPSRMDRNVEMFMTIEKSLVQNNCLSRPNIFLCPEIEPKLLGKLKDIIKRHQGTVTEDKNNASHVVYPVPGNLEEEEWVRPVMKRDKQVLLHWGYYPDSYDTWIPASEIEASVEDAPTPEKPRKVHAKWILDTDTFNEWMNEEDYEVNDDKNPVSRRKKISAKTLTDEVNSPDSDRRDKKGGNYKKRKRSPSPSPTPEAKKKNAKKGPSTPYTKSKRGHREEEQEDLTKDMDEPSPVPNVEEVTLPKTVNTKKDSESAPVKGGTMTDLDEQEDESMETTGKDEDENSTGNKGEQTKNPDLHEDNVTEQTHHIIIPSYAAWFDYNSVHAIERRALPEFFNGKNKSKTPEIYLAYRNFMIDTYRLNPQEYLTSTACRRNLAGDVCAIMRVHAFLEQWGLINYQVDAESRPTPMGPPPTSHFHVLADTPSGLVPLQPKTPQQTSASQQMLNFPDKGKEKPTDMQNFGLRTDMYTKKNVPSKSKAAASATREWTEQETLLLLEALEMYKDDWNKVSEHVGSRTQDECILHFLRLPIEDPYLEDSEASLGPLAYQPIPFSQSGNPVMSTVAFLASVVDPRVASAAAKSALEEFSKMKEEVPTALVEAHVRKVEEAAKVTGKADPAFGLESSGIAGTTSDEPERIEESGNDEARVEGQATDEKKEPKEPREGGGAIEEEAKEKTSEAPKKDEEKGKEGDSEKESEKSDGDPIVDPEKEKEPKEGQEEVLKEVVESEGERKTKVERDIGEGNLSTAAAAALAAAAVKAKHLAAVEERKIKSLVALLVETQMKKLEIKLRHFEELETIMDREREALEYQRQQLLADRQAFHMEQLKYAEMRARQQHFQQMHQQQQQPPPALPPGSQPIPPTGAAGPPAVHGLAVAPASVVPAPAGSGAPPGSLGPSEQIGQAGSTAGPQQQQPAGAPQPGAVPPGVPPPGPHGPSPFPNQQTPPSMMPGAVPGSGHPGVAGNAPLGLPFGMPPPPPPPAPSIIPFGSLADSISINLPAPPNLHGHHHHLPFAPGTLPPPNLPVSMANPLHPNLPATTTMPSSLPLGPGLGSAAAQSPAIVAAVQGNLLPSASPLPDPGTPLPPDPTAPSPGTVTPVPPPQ
# UniProt Q13487, whole entry, looked up: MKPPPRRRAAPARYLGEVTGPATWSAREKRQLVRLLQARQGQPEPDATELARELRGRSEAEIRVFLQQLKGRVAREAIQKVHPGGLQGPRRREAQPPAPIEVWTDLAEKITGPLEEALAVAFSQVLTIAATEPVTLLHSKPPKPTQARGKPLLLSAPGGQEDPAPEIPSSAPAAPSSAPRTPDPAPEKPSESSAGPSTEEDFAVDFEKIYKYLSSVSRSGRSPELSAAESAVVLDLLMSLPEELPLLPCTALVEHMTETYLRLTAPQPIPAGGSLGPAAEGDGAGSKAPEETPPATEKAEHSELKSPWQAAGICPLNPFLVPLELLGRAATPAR
# Tests used:
# Assay in all cases: log2 fold change, soluble protein after heating vs DMSO (PISA); higher = thermal stabilisation; K562 lysate, 10 uM; active = over 0.2 and 3.5 SD of the protein, either way, in both replicates (recomputed)
# vorinostat = compound: O=C(CCCCCCC(=O)Nc1ccccc1)NO [vorinostat]
# Summary of the method: (§1)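 A 30 min treatment with 10 μM compound was applied to crude K562 extract at 1 mg/mL protein in PBS pH 7.4 with 1 mM MgCl2. Heating for 3 min spanned 48°C-58°C, after which aliquots were pooled, adjusted to 0.5% NP-40 at 4°C and spun at 21,000xg for 90 min. TMTpro 16plex LC-MS/MS of the supernatant, with channel sums equalised, gave values recorded as log-two fold change in thermal stability against solvent controls, from duplicates.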
# silmitasertib = compound: O=C(O)c1ccc2c(c1)nc(Nc1cccc(Cl)c1)c1ccncc12 [silmitasertib]
# Summary of the method: as §1
# entospletinib = compound: c1cn2cc(-c3ccc4cn[nH]c4c3)nc(Nc3ccc(N4CCOCC4)cc3)c2n1 [entospletinib]
# Summary of the method: as §1
# [1] = compound: NCC(=O)Nc1ccc(-n2nc(C(F)(F)F)cc2-c2ccc3c(ccc4ccccc43)c2)cc1
# Summary of the method: as §1
# [2] = compound: O=C1NC(=O)C(c2cnc3ccccn23)=C1c1cn2c3c(cc(F)cc13)CN(C(=O)N1CCCCC1)CC2
# Summary of the method: as §1
Target,log2 fold change (vorinostat),log2 fold change (silmitasertib),log2 fold change (entospletinib),log2 fold change [1],log2 fold change [2]
SMPD2 (UniProt O60906),inactive: 0.261,active: -1.47,inactive: 0.058,,
SMPDL3B (UniProt Q92485),,,inactive: -0.255,inactive: 0.05,inactive: -0.071
SMPD4 isoform 4 (UniProt Q9NXE4),,,inactive: -0.133,inactive: -0.09,
SMR3B (UniProt P02814),,,inactive: -0.536,,inactive: 0.12
SNX19 (UniProt Q92543),inactive: -0.182,inactive: 0.038,inactive: -0.029,,inactive: 0.073
SMPDL3A (UniProt Q92484),,,inactive: -0.026,inactive: 0.112,
SMARCA4 isoform 4 (UniProt P51532),inactive: 0.166,inactive: -0.198,inactive: -0.083,,inactive: 0.119
SP3 (UniProt Q02447),inactive: 0.082,inactive: -0.029,inactive: 0.039,,inactive: 0.015
SPAG9 isoform 4 (UniProt O60271),,,inactive: 0.042,inactive: 0.063,inactive: -0.031
SNAP47 (UniProt Q5SQN1),inactive: -0.328,inactive: 0.01,inactive: 0.066,,inactive: 0.018
SMARCC2 isoform 3 (UniProt Q8TAQ2),,,,,inactive: -0.054
SNX33 (UniProt Q8WV41),,,,,inactive: 0.013
SNAPC2 (UniProt Q13487),active: -0.631,inactive: -0.122,,,inactive: -0.086

# An excerpt of these results, bar-delimited:
Target | log2 fold change (vorinostat) | log2 fold change (silmitasertib) | log2 fold change (entospletinib) | log2 fold change [1] | log2 fold change [2]
SMR3B (UniProt P02814) |  |  | inactive: -0.536 |  | inactive: 0.12
SNX19 (UniProt Q92543) | inactive: -0.182 | inactive: 0.038 | inactive: -0.029 |  | inactive: 0.073
SMPDL3A (UniProt Q92484) |  |  | inactive: -0.026 | inactive: 0.112 | 
